Our source for the binding values is PMC7229820.

Protein sequences, listed by entry. Tags and fused reporters are not part of them.
UniProt Q3URK3: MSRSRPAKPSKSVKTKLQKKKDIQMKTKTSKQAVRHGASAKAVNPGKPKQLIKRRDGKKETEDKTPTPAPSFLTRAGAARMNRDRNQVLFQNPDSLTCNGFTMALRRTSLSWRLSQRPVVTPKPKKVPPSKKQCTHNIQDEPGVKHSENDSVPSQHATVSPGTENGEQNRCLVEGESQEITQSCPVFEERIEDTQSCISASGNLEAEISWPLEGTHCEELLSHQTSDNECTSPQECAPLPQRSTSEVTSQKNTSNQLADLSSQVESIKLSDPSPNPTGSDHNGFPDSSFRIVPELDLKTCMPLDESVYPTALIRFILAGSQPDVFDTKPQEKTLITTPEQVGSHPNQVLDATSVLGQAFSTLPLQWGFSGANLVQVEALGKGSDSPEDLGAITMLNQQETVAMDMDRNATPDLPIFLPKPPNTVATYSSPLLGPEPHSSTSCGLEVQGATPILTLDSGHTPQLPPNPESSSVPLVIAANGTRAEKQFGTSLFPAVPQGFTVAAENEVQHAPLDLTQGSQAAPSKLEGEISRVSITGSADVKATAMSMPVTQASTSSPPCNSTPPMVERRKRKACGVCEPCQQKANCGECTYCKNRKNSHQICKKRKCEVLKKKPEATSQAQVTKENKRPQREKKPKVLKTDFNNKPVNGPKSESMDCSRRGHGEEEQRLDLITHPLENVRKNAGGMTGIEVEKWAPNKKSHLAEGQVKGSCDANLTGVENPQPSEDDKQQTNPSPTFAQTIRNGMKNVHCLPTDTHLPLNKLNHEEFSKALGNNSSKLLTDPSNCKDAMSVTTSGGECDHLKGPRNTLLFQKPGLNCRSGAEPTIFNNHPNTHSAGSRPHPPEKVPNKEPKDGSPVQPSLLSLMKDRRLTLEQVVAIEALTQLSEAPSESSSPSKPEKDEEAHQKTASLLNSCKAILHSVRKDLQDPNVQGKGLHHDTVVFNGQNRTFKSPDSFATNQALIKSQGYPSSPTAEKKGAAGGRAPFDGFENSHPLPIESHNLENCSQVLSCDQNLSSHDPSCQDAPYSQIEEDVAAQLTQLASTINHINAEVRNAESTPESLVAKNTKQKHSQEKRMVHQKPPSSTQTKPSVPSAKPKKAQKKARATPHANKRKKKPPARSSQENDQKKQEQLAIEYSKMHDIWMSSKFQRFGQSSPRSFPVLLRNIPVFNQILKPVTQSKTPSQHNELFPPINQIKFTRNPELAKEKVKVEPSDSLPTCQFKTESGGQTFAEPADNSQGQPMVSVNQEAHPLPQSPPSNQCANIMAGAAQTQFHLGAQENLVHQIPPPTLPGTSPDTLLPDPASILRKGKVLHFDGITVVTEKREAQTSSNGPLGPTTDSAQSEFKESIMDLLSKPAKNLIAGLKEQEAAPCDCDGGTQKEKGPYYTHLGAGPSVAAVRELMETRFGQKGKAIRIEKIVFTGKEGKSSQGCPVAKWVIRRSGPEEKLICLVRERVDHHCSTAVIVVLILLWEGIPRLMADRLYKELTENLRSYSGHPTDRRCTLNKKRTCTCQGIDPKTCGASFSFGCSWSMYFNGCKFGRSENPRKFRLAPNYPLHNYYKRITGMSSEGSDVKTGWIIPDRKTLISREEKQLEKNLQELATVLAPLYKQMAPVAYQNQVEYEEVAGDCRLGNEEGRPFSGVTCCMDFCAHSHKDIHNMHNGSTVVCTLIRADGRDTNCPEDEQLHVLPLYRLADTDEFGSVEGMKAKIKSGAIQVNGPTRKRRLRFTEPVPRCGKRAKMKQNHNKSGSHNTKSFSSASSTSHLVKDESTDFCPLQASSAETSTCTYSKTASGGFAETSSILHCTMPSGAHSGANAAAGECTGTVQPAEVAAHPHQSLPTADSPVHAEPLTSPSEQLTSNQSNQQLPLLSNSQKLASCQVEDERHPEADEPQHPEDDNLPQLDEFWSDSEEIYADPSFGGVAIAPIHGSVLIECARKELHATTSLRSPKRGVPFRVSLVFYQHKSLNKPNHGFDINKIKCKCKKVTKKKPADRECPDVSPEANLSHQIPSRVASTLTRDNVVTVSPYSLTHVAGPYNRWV

The assay deals with T1, Flag-HA-NONO (UniProt Q99K48).
T1 sequence: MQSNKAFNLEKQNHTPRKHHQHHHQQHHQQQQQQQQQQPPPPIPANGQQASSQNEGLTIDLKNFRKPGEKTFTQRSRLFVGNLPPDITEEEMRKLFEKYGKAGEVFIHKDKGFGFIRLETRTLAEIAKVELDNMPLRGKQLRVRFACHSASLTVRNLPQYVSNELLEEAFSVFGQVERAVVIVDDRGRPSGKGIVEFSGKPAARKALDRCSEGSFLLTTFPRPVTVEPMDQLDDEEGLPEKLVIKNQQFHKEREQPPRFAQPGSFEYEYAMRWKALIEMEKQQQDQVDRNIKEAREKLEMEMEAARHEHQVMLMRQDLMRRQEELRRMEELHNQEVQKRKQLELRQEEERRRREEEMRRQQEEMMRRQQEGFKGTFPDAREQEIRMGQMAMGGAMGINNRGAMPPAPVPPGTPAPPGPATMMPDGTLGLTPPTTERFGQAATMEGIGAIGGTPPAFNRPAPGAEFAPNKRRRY
The assay can be described thus: affinity purification with mass spectrometry; tandem affinity purification (Flag beads and HA beads) of the NONO complex from nuclear extracts of mESCs stably expressing Flag-HA-Nono; MS/MS.

Results are given in words; binding and its absence hold for the method and conditions named. Binding seen in cells or lysates may run through a third protein. These calls come from enrichment with a bait or labelling near it, and not all partners need be listed. Tags and fused reporters may be left off the sequences shown.

As for “Ten-Eleven Translocation 1 (TET1) (from UniProt Q3URK3 1-2039)”, the binding entry is “binds”.

B1: OGT (protein, UniProt Q8CGY8 1-1046)
chain: MASSVGNVADSTEPTKRMLSFQGLAELAHREYQAGDFEAAERHCMQLWRQEPDNTGVLLLLSSIHFQCRRLDRSAHFSTLAIKQNPLLAEAYSNLGNVYKERGQLQEAIEHYRHALRLKPDFIDGYINLAAALVAAGDMEGAVQAYVSALQYNPDLYCVRSDLGNLLKALGRLEEAKACYLKAIETQPNFAVAWSNLGCVFNAQGEIWLAIHHFEKAVTLDPNFLDAYINLGNVLKEARIFDRAVAAYLRALSLSPNHAVVHGNLACVYYEQGLIDLAIDTYRRAIELQPHFPDAYCNLANALKEKGSVAEAEDCYNTALRLCPTHADSLNNLANIKREQGNIEEAVRLYRKALEVFPEFAAAHSNLASVLQQQGKLQEALMHYKEAIRISPTFADAYSNMGNTLKEMQDVQGALQCYTRAIQINPAFADAHSNLASIHKDSGNIPEAIASYRTALKLKPDFPDAYCNLAHCLQIVCDWTDYDERMKKLVSIVAEQLEKNRLPSVHPHHSMLYPLSHGFRKAIAERHGNLCLDKINVLHKPPYEHPKDLKLSDGRLRVGYVSSDFGNHPTSHLMQSIPGMHNPDKFEVFCYALSPDDGTNFRVKVMAEANHFIDLSQIPCNGKAADRIHQDGIHILVNMNGYTKGARNELFALRPAPIQAMWLGYPGTSGALFMDYIITDQETSPAEVAEQYSEKLAYMPHTFFIGDHANMFPHLKKKAVIDFKSNGHIYDNRIVLNGIDLKAFLDSLPDVKIVKMKCPDGGDNPDSSNTALNMPVIPMNTIAEAVIEMINRGQIQITINGFSISNGLATTQINNKAATGEEVPRTIIVTTRSQYGLPEDAIVYCNFNQLYKIDPSTLQMWANILKRVPNSVLWLLRFPAVGEPNIQQYAQNMGLPQNRIIFSPVAPKEEHVRRGQLADVCLDTPLCNGHTTGMDVLWAGTPMVTMPGETLASRVAASQLTCLGCLELIAKSRQEYEDIAVKLGTDLEYLKKIRGKVWKQRISSPLFNTKQYTMELERLYLQMWEHYAAGNKPDHMIKPVEVTESA
For B1, the binding entry is “binds”.

B2: PSPC1 (protein, UniProt Q8R326 1-523)
chain: MMLRGNLKQVRIEKNPARLRALESAAGESEPVAAAAMALTLAGEQAPPPAPSEEHPDEELGFTIDIKSFLKPGEKTYTQRCRLFVGNLPTDITEEDFKRLFERYGEPSEVFINRDRGFGFIRLESRTLAEIAKAELDGTILKSRPLRIRFATHGAALTVKNLSPVVSNELLEQAFSQFGPVEKAVVVVDDRGRATGKGFVEFAAKPPARKALERCGDGAFLLTTTPRPVIVEPMEQFDDEDGLPEKLMQKTQQYHKEREQPPRFAQPGTFEFEYASRWKALDEMEKQQREQVDRNIREAKEKLEAEMEAARHEHQLMLMRQDLMRRQEELRRLEELRNQELQKRKQIQLRHEEEHRRREEEMIRHREQEELRRQQEGGFKPNYMENREQEMRMGDMGPRGAINMGDAFSPAPAGTQGPPPMMGMNMNNRGTIPGPPMGPGPAMGPEGAANMGTPMIPDNGAVHNDRFPQGPPSQMGSPMGNRTGSETPQAPMSGVGPVSGGPGGFGRGSQGGNFEGPNKRRRY
For the molecule B2, the binding result was “binds”.
